Patent publication US20150111251A1 (AbbVie / Abbott, published 2015)

B1: AB353 (antibody, V domains shown)
VH: EVQLVQSGSELKKPGASVKVSCKASGYTFTNYGMNWVRQAPGQGLEWMGWINTYTGEPTYADDFKGRFVFSLDTSVSTAYLQISSLKAEDTAVYYCARKFLTTVVVTDYAMDYWGQGTTVTVSS
VL: DIQMTQSPSSLSASVGDRVTITCRASQDISNYLNWYQQKPGKAPKLLIYYTSRLQSGVPSRFSGSGSGTDYTLTISSLQPEDFATYYCQQGNTLPPTFGQGTKLEIK
notes: Full-length humanized antibody made in HEK 293-6E; also called hMAK199VH.1/hMAK199VL.1b
B2: AB351 (antibody, V domains shown)
VH: B1 VH
VL: B1 VL with Y71F
notes: Full-length humanized antibody made in HEK 293-6E; also called hMAK199VH.1/hMAK199VL.1
B3: AB352 (antibody, V domains shown)
VH: B1 VH
VL: B1 VL with A43T, P44V, Y87F
notes: Full-length humanized antibody made in HEK 293-6E; also called hMAK199VH.1/hMAK199VL.1a
B4: AB357 (antibody, V domains shown)
VH: B1 VH with V2I, Y95F
VL: B1 VL with Y71F
notes: Full-length humanized antibody made in HEK 293-6E; also called hMAK199VH.1a/hMAK199VL.1
B5: AB358 (antibody, V domains shown)
VH: B1 VH with V2I, Y95F
VL: B1 VL with A43T, P44V, Y87F
notes: Full-length humanized antibody made in HEK 293-6E; also called hMAK199VH.1a/hMAK199VL.1a
B6: AB359 (antibody, V domains shown)
VH: B1 VH with V2I, Y95F
VL: B1 VL
notes: Full-length humanized antibody made in HEK 293-6E; also called hMAK199VH.1a/hMAK199VL.1b
B7: AB363 (antibody, V domains shown)
VH: B1 VH with Y95F
VL: B1 VL with Y71F
notes: Full-length humanized antibody made in HEK 293-6E; also called hMAK199VH.1b/hMAK199VL.1
B8: AB364 (antibody, V domains shown)
VH: B1 VH with Y95F
VL: B1 VL with A43T, P44V, Y87F
notes: Full-length humanized antibody made in HEK 293-6E; also called hMAK199VH.1b/hMAK199VL.1a
B9: AB365 (antibody, V domains shown)
VH: B1 VH with Y95F
VL: B1 VL
notes: Full-length humanized antibody made in HEK 293-6E; also called hMAK199VH.1b/hMAK199VL.1b
B10: AB377 (antibody, V domains shown)
VH: EIQLVQSGAEVKKPGASVKVSCKASGYTFTNYGMNWVRQAPGQGLEWMGWINTYTGEPTYADDFKGRFTFTLDTSTSTAYMELSSLRSEDTAVYFCARKFLTTVVVTDYAMDYWGQGTTVTVSS
VL: B1 VL
notes: Full-length humanized antibody made in HEK 293-6E; also called hMAK199VH.2a/hMAK199VL.1b
B11: AB356 (antibody, V domains shown)
VH: B1 VH
VL: DIVMTQSPAFLSVTPGEKVTITCRASQDISNYLNWYQQKPDQAPKLLIYYTSRLQSGVPSRFSGSGSGTDYTFTISSLEAEDAATYYCQQGNTLPPTFGQGTKLEIK
notes: Full-length humanized antibody made in HEK 293-6E; also called hMAK199VH.1/hMAK199VL.2b
B12: AB354 (antibody, V domains shown)
VH: B1 VH
VL: B11 VL with I2V, Y49K, Y71F
notes: Full-length humanized antibody made in HEK 293-6E; also called hMAK199VH.1/hMAK199VL.2
B13: AB355 (antibody, V domains shown)
VH: B1 VH
VL: B11 VL with A43T, P44V, Y87F
notes: Full-length humanized antibody made in HEK 293-6E; also called hMAK199VH.1/hMAK199VL.2a
B14: AB360 (antibody, V domains shown)
VH: B1 VH with V2I, Y95F
VL: B11 VL with I2V, Y49K, Y71F
notes: Full-length humanized antibody made in HEK 293-6E; also called hMAK199VH.1a/hMAK199VL.2
B15: AB361 (antibody, V domains shown)
VH: B1 VH with V2I, Y95F
VL: B11 VL with A43T, P44V, Y87F
notes: Full-length humanized antibody made in HEK 293-6E; also called hMAK199VH.1a/hMAK199VL.2a
B16: AB362 (antibody, V domains shown)
VH: B1 VH with V2I, Y95F
VL: B11 VL
notes: Full-length humanized antibody made in HEK 293-6E; also called hMAK199VH.1a/hMAK199VL.2b
B17: AB366 (antibody, V domains shown)
VH: B1 VH with Y95F
VL: B11 VL with I2V, Y49K, Y71F
notes: Full-length humanized antibody made in HEK 293-6E; also called hMAK199VH.1b/hMAK199VL.2
B18: AB367 (antibody, V domains shown)
VH: B1 VH with Y95F
VL: B11 VL with A43T, P44V, Y87F
notes: Full-length humanized antibody made in HEK 293-6E; also called hMAK199VH.1b/hMAK199VL.2a
B19: AB368 (antibody, V domains shown)
VH: B1 VH with Y95F
VL: B11 VL
notes: Full-length humanized antibody made in HEK 293-6E; also called hMAK199VH.1b/hMAK199VL.2b
B20: AB380 (antibody, V domains shown)
VH: B10 VH
VL: B11 VL
notes: Full-length humanized antibody made in HEK 293-6E; also called hMAK199VH.2a/hMAK199VL.2b
B21: AB369 (antibody, V domains shown)
VH: B10 VH with I2V, F68V, F70M, L72T, F95Y
VL: B1 VL with Y71F
notes: Full-length humanized antibody made in HEK 293-6E; also called hMAK199VH.2/hMAK199VL.1
B22: AB370 (antibody, V domains shown)
VH: B10 VH with I2V, F68V, F70M, L72T, F95Y
VL: B1 VL with A43T, P44V, Y87F
notes: Full-length humanized antibody made in HEK 293-6E; also called hMAK199VH.2/hMAK199VL.1a
B23: AB371 (antibody, V domains shown)
VH: B10 VH with I2V, F68V, F70M, L72T, F95Y
VL: B1 VL
notes: Full-length humanized antibody made in HEK 293-6E; also called hMAK199VH.2/hMAK199VL.1b
B24: AB372 (antibody, V domains shown)
VH: B10 VH with I2V, F68V, F70M, L72T, F95Y
VL: B11 VL with I2V, Y49K, Y71F
notes: Full-length humanized antibody made in HEK 293-6E; also called hMAK199VH.2/hMAK199VL.2
B25: AB373 (antibody, V domains shown)
VH: B10 VH with I2V, F68V, F70M, L72T, F95Y
VL: B11 VL with A43T, P44V, Y87F
notes: Full-length humanized antibody made in HEK 293-6E; also called hMAK199VH.2/hMAK199VL.2a
B26: AB374 (antibody, V domains shown)
VH: B10 VH with I2V, F68V, F70M, L72T, F95Y
VL: B11 VL
notes: Full-length humanized antibody made in HEK 293-6E; also called hMAK199VH.2/hMAK199VL.2b
B27: AB375 (antibody, V domains shown)
VH: B10 VH
VL: B1 VL with Y71F
notes: Full-length humanized antibody made in HEK 293-6E; also called hMAK199VH.2a/hMAK199VL.1
B28: AB376 (antibody, V domains shown)
VH: B10 VH
VL: B1 VL with A43T, P44V, Y87F
notes: Full-length humanized antibody made in HEK 293-6E; also called hMAK199VH.2a/hMAK199VL.1a
B29: AB378 (antibody, V domains shown)
VH: B10 VH
VL: B11 VL with I2V, Y49K, Y71F
notes: Full-length humanized antibody made in HEK 293-6E; also called hMAK199VH.2a/hMAK199VL.2
B30: AB379 (antibody, V domains shown)
VH: B10 VH
VL: B11 VL with A43T, P44V, Y87F
notes: Full-length humanized antibody made in HEK 293-6E; also called hMAK199VH.2a/hMAK199VL.2a
B31: AB381 (antibody, V domains shown)
VH: B10 VH with F68V, L72T, F95Y
VL: B1 VL with Y71F
notes: Full-length humanized antibody made in HEK 293-6E; also called hMAK199VH.2b/hMAK199VL.1
B32: AB382 (antibody, V domains shown)
VH: B10 VH with F68V, L72T, F95Y
VL: B1 VL with A43T, P44V, Y87F
notes: Full-length humanized antibody made in HEK 293-6E; also called hMAK199VH.2b/hMAK199VL.1a
B33: AB383 (antibody, V domains shown)
VH: B10 VH with F68V, L72T, F95Y
VL: B1 VL
notes: Full-length humanized antibody made in HEK 293-6E; also called hMAK199VH.2b/hMAK199VL.1b
B34: AB384 (antibody, V domains shown)
VH: B10 VH with F68V, L72T, F95Y
VL: B11 VL with I2V, Y49K, Y71F
notes: Full-length humanized antibody made in HEK 293-6E; also called hMAK199VH.2b/hMAK199VL.2
B35: AB385 (antibody, V domains shown)
VH: B10 VH with F68V, L72T, F95Y
VL: B11 VL with A43T, P44V, Y87F
notes: Full-length humanized antibody made in HEK 293-6E; also called hMAK199VH.2b/hMAK199VL.2a
B36: AB386 (antibody, V domains shown)
VH: B10 VH with F68V, L72T, F95Y
VL: B11 VL
notes: Full-length humanized antibody made in HEK 293-6E; also called hMAK199VH.2b/hMAK199VL.2b
B37: murine anti-human TNF-α monoclonal antibody MAK199 (antibody, V domains shown)
VH: QIQLVQSGPELKKPGETVMISCKASGYTFTNYGMNWVKQAPGKGLKWMGWINTYTGEPTYADDFKGRFAFSLETSASTAYLQINNLKNEDTATYFCARKFLTTVVVTDYAMDYWGQGTSVTVSS
VL: DIQMTQTTSSLSASLGDRVTISCRASQDISNYLNWYQQKPDGTVKLLIYYTSRLQSGVPSRFSGSGSGTDYSLTISNLEQEDIATYFCQQGNTLPPTFGVGTKLELK

molecular target: Recombinant Human TNF-α/TNFSF1A (human); test: SPR (BIACORE)

Binder | binding
B1 | binds
B2 | binds
B3 | binds
B4 | binds
B5 | binds
B6 | binds
B7 | binds
B8 | binds
B9 | binds
B10 | binds
B11 | binds
B12 | binds
B13 | binds
B14 | binds
B15 | binds
B16 | binds
B17 | binds
B18 | binds
B19 | binds

Binder | binding
B20 | binds
B21 | binds
B22 | binds
B23 | binds
B24 | binds
B25 | binds
B26 | binds
B27 | binds
B28 | binds
B29 | binds
B30 | binds
B31 | binds
B32 | binds
B33 | binds
B34 | binds
B35 | binds
B36 | binds
B37 | binds

Substitutions are numbered along the chain they refer to. No constants are given. Whether binding was seen depends on the method and setting. Binding can be weak; no strength is given.
